These are yes or no findings as the source states them, for the method shown. Binding seen in cells or lysates may run through a third protein. Some binding calls cover weakened binding; strength is not graded here.
Molecular target: T1, H3K27me3 peptide
T1 sequence (peptide, trimethyl-lysine at K27): LATKAARKSAPATGGC
Assay: pull-down; H3K27 or H3K27me3 peptides coupled to SulfoLink Coupling Gel; equal amounts of 35S-methionine-labelled in vitro translated wild-type and mutant LHP1; SDS-PAGE, storage phosphor screen; only the target purified

B1: LIKE HETEROCHROMATIN PROTEIN 1 (LHP1), wild type (protein, UniProt Q946J8 1-445)
chain: MKGASGAVKKKPQVLNEAGEAETAVETVGESRKISGDGGFGSDDGGGGGGGGSGESILREIGDDRPTEDGDEEEEEDEDEDDGGDEEDEEGEGEGGQEERPKLDEGFYEIEAIRRKRVRKGKVQYLIKWRGWPETANTWEPLENLQSIADVIDAFEGSLKPGKPGRKRKRKYAGPHSQMKKKQRLTSTSHDATEKSDSSTSLNNSSLPDIPDPLDLSGSSLLNRDVEAKNAYVSNQVEANSGSVGMARQVRLIDNEKEYDPTLNELRGPVNNSNGAGCSQGGGIGSEGDNVRPNGLLKVYPKELDKNSRFIGAKRRKSGSVKRFKQDGSTSNNHTAPTDQNLTPDLTTLDSFGRIARMGNEYPGVMENCNLSQKTKIEELDITKILKPMSFTASVSDNVQEVLVTFLALRSDGKEALVDNRFLKAHNPHLLIEFYEQHLKYNRTP
modifications: labelled with L-[35S]methionine
Q: How did the binding turn out when B1 was run?
A: binds

From paper PMC2670505
